The chains are these.
B1: tRNA (parent)
chain: GUUCCGUUGGCGUAAUGGUAACGCGUCUCCCUCCUAAGGAGAAGACUGCGGGUUCGAGUCCCGUACGGAACG

Variants at the background level are over-represented here. Where only a bound is given, the exact number is not on record here.

In this data set the parent is B1. Nature of the data set: yeast fitness relative to wild type (ratio to wild type); higher = fitter; tRNA-Arg(CCU), competitive growth, 37 C, YPD. Summed up:
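Start and end populations of a pooled competition were compared by 100-nucleotide paired-end sequencing of gene amplicons. The Saccharomyces cerevisiae strains carried tRNA-Arg(CCU) gene variants at the native genomic locus, synthesised with a 3% per-site mutation rate at 69 sites, and competed in YPD at 37°C for 24 hours in six parallel replicates. Darwinian fitness relative to wild type was based on the change in genotype frequencies. Genotypes required ≥ 100 starting reads, and estimates < 0.5 were set to 0.5.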
Regarding A20C C34A C49U G63C, the yeast fitness was at most 0.5.

For C24G U35G, the yeast fitness was at most 0.5.

With G10C G39C G51A, the yeast fitness was at most 0.5.

Consider U26C C31G A65U G67C, for which the yeast fitness was at most 0.5.

In the case of C4A U19C U35C G48A, the yeast fitness is at most 0.5.

In the case of G38A G51C C55A A70U, the yeast fitness is at most 0.5.

In the case of A20C C60A, the yeast fitness was 0.587.

As to C4U A20G, the yeast fitness turned out to be 0.979.

For the variant A20U A43G G58C C62U, the yeast fitness is at most 0.5.

Regarding C24A G48C, the yeast fitness came out at 0.621.

With C4A A40U G52C A65U G68U, the yeast fitness was at most 0.5.

For C4G G17A U26C C61A, the yeast fitness is at most 0.5.

For the variant C5U A14U G67U G68C, the yeast fitness was at most 0.5.

As to G6C A14G A20C C62G, the yeast fitness was at most 0.5.

Regarding C5A C24G G25A G48A, the yeast fitness is at most 0.5.

Turning to U2C A21G C33G C46G, the yeast fitness is at most 0.5.

As to A15C C31G U64C, the yeast fitness is at most 0.5.

Take U2G C22G G63C G68U: the yeast fitness was at most 0.5.

Turning to C31U C55G A65G, the yeast fitness is at most 0.5.

Take A37C C49A C66U: the yeast fitness is at most 0.5.

Consider G23C A37G A43U G50C A57G, for which the yeast fitness was at most 0.5.

With G17A A70C, the yeast fitness was 0.842.

On to U3C G9U G18A C46A C49G, for which the yeast fitness is at most 0.5.

For U3C A15U C34U C62U, the yeast fitness is at most 0.5.

With A15U A20U C27G C49G, the yeast fitness came to 0.64.

Consider U2A U3G C29G C30G C46G, for which the yeast fitness is 0.612.

For the variant C5U C66G, the yeast fitness is 0.779.

As for A36U A45U G52C A57U, the yeast fitness was at most 0.5.

As for U16C C27A A69U, the yeast fitness was at most 0.5.

Turning to C11U A20U C22A C66G, the yeast fitness was at most 0.5.

Turning to G6A U13C, the yeast fitness amounted to 0.937.

For the variant C5G C11G C27G G67U, the yeast fitness was at most 0.5.

Turning to U2A C33U C34U G38A G51A C55A A65U, the yeast fitness was at most 0.5.

Consider G10C U13C A36G C49U, for which the yeast fitness was at most 0.5.

With G23U G25C C49U C61U, the yeast fitness was at most 0.5.

As to G12A C24G A40C A43C C46U U64C A70G, the yeast fitness was at most 0.5.

For A21U C34U C49U A65U, the yeast fitness was at most 0.5.

U26C C46A U47G G50A G58C C60U C66G: the yeast fitness was at most 0.5.

Turning to C34A G51A G63A, the yeast fitness is at most 0.5.

As for A15U C24G U35G C60G, the yeast fitness was at most 0.5.

With U2C U32G C60G G68A, the yeast fitness was at most 0.5.

For C5A G9C G38C G63C C66U, the yeast fitness is at most 0.5.

For the variant C5G C22A U26C C33G G63A, the yeast fitness was at most 0.5.

On to C5A C46U, for which the yeast fitness turned out to be 0.997.

As to C4U C5G A15U C22G C30U, the yeast fitness is at most 0.5.

As to G12A C24A A36U A65U, the yeast fitness was at most 0.5.

For the variant C5G U13G A14U U59C C60U, the yeast fitness is at most 0.5.

As for C4G U7A C29U G44A, the yeast fitness was at most 0.5.

In the case of C4G C11U C24G C27G A65U, the yeast fitness was at most 0.5.

In the case of G41C A43C C66U, the yeast fitness was at most 0.5.

For the variant A21U C33G A42G G44A, the yeast fitness was 0.541.

Take C30A U54G G56A: the yeast fitness was at most 0.5.

Turning to U8C C27G C34A C49U C60A, the yeast fitness was at most 0.5.

On to U32C C49A, for which the yeast fitness turned out to be 0.692.

Take A36C U59A A69G: the yeast fitness is at most 0.5.

Consider U8C U28G C46G C49U A69C, for which the yeast fitness is at most 0.5.

Consider U3A G18A C31G A40G G52C, for which the yeast fitness was at most 0.5.

Turning to G25U G68A A70C, the yeast fitness was at most 0.5.

For G10A C33G A37G A70G, the yeast fitness is at most 0.5.

C5G U28G A36G G38C C62G C66U: the yeast fitness is at most 0.5.

Take C5G A20C C29G G44C: the yeast fitness was at most 0.5.

On to U16G G41C C46U C61A G67A, for which the yeast fitness was at most 0.5.

In the case of U3A G10C A36U A40C C60G, the yeast fitness is 0.569.

In the case of A40C A43C, the yeast fitness came out at 1.04.

As to C33U A42C G68U, the yeast fitness came to 0.538.

In the case of G6A C49G G50A, the yeast fitness is at most 0.5.

In the case of C11G C27A C34U A42U C55U, the yeast fitness is at most 0.5.

G10C C27A G56A G67A: the yeast fitness was at most 0.5.

Take G6C U8C C30G: the yeast fitness was at most 0.5.

Take G6C G17A A36U C60A: the yeast fitness is at most 0.5.

For C4G C24G C27G A42C C62G, the yeast fitness was at most 0.5.

G6A A14G A42G: the yeast fitness was determined as 0.549.

As for G9A C11A G44C, the yeast fitness was at most 0.5.

On to C66A A69G A70C, for which the yeast fitness is at most 0.5.

On to G6C U7C G48A A70U, for which the yeast fitness is at most 0.5.

G10C C62U U64A: the yeast fitness is at most 0.5.

For C11U A37G U54A A57G U59G, the yeast fitness is at most 0.5.

For C4A A21G C61U A69U, the yeast fitness was at most 0.5.

U8A A20G C33A A57G: the yeast fitness is at most 0.5.

U2A G52A C61A: the yeast fitness was at most 0.5.

U3C A15C C60G: the yeast fitness is at most 0.5.

On to A20C U35A A36G G44C G48A A57C, for which the yeast fitness was at most 0.5.

Take U28G G41C U53A: the yeast fitness was at most 0.5.

(Values after the RNAGym collection of RNA variant scans (doi:10.1126/science.aae0568).)
